In ChEMBL document CHEMBL1687827, “Profiling the Aspergillus fumigatus proteome in response to caspofungin” (2011):
This continues a long series; more values of the same kind are listed elsewhere.

What was measured:
Type in all cases: functional
[1] = system: Aspergillus fumigatus; experiment: Induction of change in ThiJ/PfpI family protein level in iTRAQ-116 labelled secreted fraction of drug-resistant Aspergillus fumigatus EMFR-S678P at 0.12 ug/ml after 48 hrs in YPD medium by MS (MS/MS) analysis relative to control
[2] = system: Aspergillus fumigatus; experiment: Induction of change in CipC-like antibiotic response protein, putative protein level in iTRAQ-116 labelled secreted fraction of drug-susceptible Aspergillus fumigatus KU80 delta-akuB at 0.12 ug/ml after 48 hrs in YPD medium by MS (MS/MS) analysis relative to control
[3] = system: Aspergillus fumigatus; experiment: Induction of change in Ribosomal L15 gene expression in drug-susceptible Aspergillus fumigatus KU80 delta-akuB at 0.12 ug/ml after 24 hrs in YPD medium by microarray analysis relative to control
[4] = system: Aspergillus fumigatus; experiment: Induction of change in hypothetical gene locus AFUA_6G02020 expression in drug-susceptible Aspergillus fumigatus KU80 delta-akuB at 0.12 ug/ml after 48 hrs in YPD medium by microarray analysis relative to control
[5] = system: Aspergillus fumigatus; experiment: Induction of change in carbonic anhydrase family gene expression in drug-susceptible Aspergillus fumigatus KU80 delta-akuB at 0.12 ug/ml after 48 hrs in YPD medium by microarray analysis relative to control
[6] = system: Aspergillus fumigatus; experiment: Induction of change in 60S ribosomal protein L23 protein level in iTRAQ114 labelled cell wall fraction of drug-susceptible Aspergillus fumigatus KU80 delta-akuB at 0.12 ug/ml after 24 hrs in YPD medium by MS (MS/MS) analysis relative to control
[7] = system: Aspergillus fumigatus; experiment: Induction of change in alkaline serine protease protein level in iTRAQ114 labelled secreted fraction of drug-susceptible Aspergillus fumigatus KU80 delta-akuB at 0.12 ug/ml after 24 hrs in YPD medium by MS (MS/MS) analysis relative to control
[8] = system: Aspergillus fumigatus; experiment: Induction of change in acetyl-CoA-acetyltransferase, putative gene expression in drug-susceptible Aspergillus fumigatus KU80 delta-akuB at 0.12 ug/ml after 48 hrs in YPD medium by microarray analysis relative to control
[9] = system: Aspergillus fumigatus; experiment: Induction of change in cytosolic large ribosomal subunit protein L30 gene expression in drug-susceptible Aspergillus fumigatus KU80 delta-akuB at 0.12 ug/ml after 24 hrs in YPD medium by microarray analysis relative to control
[10] = system: Aspergillus fumigatus; experiment: Induction of change in ribosomal protein S23 protein level in iTRAQ114 labelled secreted fraction of drug-susceptible Aspergillus fumigatus KU80 delta-akuB at 0.12 ug/ml after 24 hrs in YPD medium by MS (MS/MS) analysis relative to control
[11] = system: Aspergillus fumigatus; experiment: Induction of change in 40S ribosomal protein S6 protein level in iTRAQ114 labelled cell wall fraction of drug-susceptible Aspergillus fumigatus KU80 delta-akuB at 0.12 ug/ml after 24 hrs in YPD medium by MS (MS/MS) analysis relative to control
[12] = system: Aspergillus fumigatus; experiment: Induction of change in 60S ribosomal protein L19 protein level in iTRAQ-118 labelled cell wall fraction of drug-susceptible Aspergillus fumigatus KU80 delta-akuB at 0.12 ug/ml after 24 hrs in YPD medium by MS (MS/MS) analysis relative to control
[13] = system: Aspergillus fumigatus; experiment: Induction of change in extracellular cell wall glucanase Crf1/allergen Asp F9 protein level in iTRAQ-118 labelled cell wall fraction of drug-susceptible Aspergillus fumigatus KU80 delta-akuB at 0.12 ug/ml after 24 hrs in YPD medium by MS (MS/MS) analysis relative to control
[14] = system: Aspergillus fumigatus; experiment: Induction of change in translation elongation factor eEF-3, putative protein level in iTRAQ-118 labelled cell wall fraction of drug-resistant Aspergillus fumigatus EMFR-S678P at 0.12 ug/ml after 24 hrs in YPD medium by MS (MS/MS) analysis relative to control
[15] = system: Aspergillus fumigatus; experiment: Induction of change in extracellular cell wall glucanase Crf1/allergen Asp F9 protein level in iTRAQ-118 labelled cell wall fraction of drug-resistant Aspergillus fumigatus EMFR-S678P at 0.12 ug/ml after 24 hrs in YPD medium by MS (MS/MS) analysis relative to control
[16] = system: Aspergillus fumigatus; experiment: Induction of change in ribosomal protein L16a gene expression in drug-susceptible Aspergillus fumigatus KU80 delta-akuB at 0.12 ug/ml after 24 hrs in YPD medium by microarray analysis relative to control
[17] = system: Aspergillus fumigatus; experiment: Induction of change in ribosomal S30/ubiquitin fusion gene expression in drug-susceptible Aspergillus fumigatus KU80 delta-akuB at 0.12 ug/ml after 24 hrs in YPD medium by microarray analysis relative to control
[18] = system: Aspergillus fumigatus; experiment: Induction of change in aconitate hydratase, mitochondrial gene expression in drug-susceptible Aspergillus fumigatus KU80 delta-akuB at 0.12 ug/ml after 48 hrs in YPD medium by microarray analysis relative to control
[19] = system: Aspergillus fumigatus; experiment: Induction of change in 40s ribosomal protein s11 protein level in iTRAQ114 labelled secreted fraction of drug-susceptible Aspergillus fumigatus KU80 delta-akuB at 0.12 ug/ml after 24 hrs in YPD medium by MS (MS/MS) analysis relative to control
[20] = system: Aspergillus fumigatus; experiment: Induction of change in conserved hypothetical gene expression in drug-susceptible Aspergillus fumigatus KU80 delta-akuB at 0.12 ug/ml after 48 hrs in YPD medium by microarray analysis relative to control
[21] = system: Aspergillus fumigatus; experiment: Induction of change in transaldolase protein level in iTRAQ-116 labelled secreted fraction of drug-susceptible Aspergillus fumigatus KU80 delta-akuB at 0.12 ug/ml after 48 hrs in YPD medium by MS (MS/MS) analysis relative to control
[22] = system: Aspergillus fumigatus; experiment: Induction of change in GPI anchored protein, putative gene expression in drug-susceptible Aspergillus fumigatus KU80 delta-akuB at 0.12 ug/ml after 48 hrs in YPD medium by microarray analysis relative to control
[23] = system: Aspergillus fumigatus; experiment: Induction of change in fructose-bisphosphate aldolase, class II gene expression in drug-susceptible Aspergillus fumigatus KU80 delta-akuB at 0.12 ug/ml after 48 hrs in YPD medium by microarray analysis relative to control
[24] = system: Aspergillus fumigatus; experiment: Induction of change in cell wall protein, putative gene expression in drug-susceptible Aspergillus fumigatus KU80 delta-akuB at 0.12 ug/ml after 48 hrs in YPD medium by microarray analysis relative to control
[25] = system: Aspergillus fumigatus; experiment: Induction of change in hypothetical protein level in iTRAQ-118 labelled cell wall fraction of drug-susceptible Aspergillus fumigatus KU80 delta-akuB at 0.12 ug/ml after 24 hrs in YPD medium by MS (MS/MS) analysis relative to control
[26] = system: Aspergillus fumigatus; experiment: Induction of change in large subunit ribosomal protein L3 protein level in iTRAQ114 labelled cell wall fraction of drug-susceptible Aspergillus fumigatus KU80 delta-akuB at 0.12 ug/ml after 24 hrs in YPD medium by MS (MS/MS) analysis relative to control
[27] = system: Aspergillus fumigatus; experiment: Induction of change in CFEM domain protein, putative gene expression in drug-susceptible Aspergillus fumigatus KU80 delta-akuB at 0.12 ug/ml after 48 hrs in YPD medium by microarray analysis relative to control

CC[C@H](C)C[C@H](C)CCCCCCCCC(=O)N[C@H]1C[C@@H](O)[C@@H](NCCN)NC(=O)[C@@H]2[C@@H](O)CCN2C(=O)[C@H]([C@H](O)CCN)NC(=O)[C@H]([C@H](O)[C@@H](O)c2ccc(O)cc2)NC(=O)[C@@H]2C[C@@H](O)CN2C(=O)[C@H]([C@@H](C)O)NC1=O [CASPOFUNGIN]
fold change (FC) [1]: 1.07 | fold change (FC) [2]: -3 | fold change (FC) [3]: 4.4 | fold change (FC) [4]: -2 | fold change (FC) [5]: -4.8 | fold change (FC) [6]: 2 | fold change (FC) [7]: 1.2 | fold change (FC) [8]: -10.3 | fold change (FC) [9]: 4.6 | fold change (FC) [10]: -1.2 | fold change (FC) [11]: 2 | fold change (FC) [12]: 2.5 | fold change (FC) [13]: -3 | fold change (FC) [14]: 1.07 | fold change (FC) [15]: -1.41 | fold change (FC) [16]: 3.3 | fold change (FC) [17]: 3.8 | fold change (FC) [18]: -2.4 | fold change (FC) [19]: 1.2 | fold change (FC) [20]: 3.9 | fold change (FC) [21]: 3.2 | fold change (FC) [22]: -2.8 | fold change (FC) [23]: -2.3 | fold change (FC) [24]: -2.1 | fold change (FC) [25]: 5.3 | fold change (FC) [26]: 2 | fold change (FC) [27]: -2.1
